Measured values as given in paper PMC11803974.
Results are given in words; binding and its absence hold for the method and conditions named. Binding seen in cells or lysates may run through a third protein. Some results given as binding are weak or reduced against the parent protein; the word gives no strength.

Target: T1, Translationally controlled tumor protein 1 (human (endogenous in AGS)) (UniProt P13693)
T1 sequence: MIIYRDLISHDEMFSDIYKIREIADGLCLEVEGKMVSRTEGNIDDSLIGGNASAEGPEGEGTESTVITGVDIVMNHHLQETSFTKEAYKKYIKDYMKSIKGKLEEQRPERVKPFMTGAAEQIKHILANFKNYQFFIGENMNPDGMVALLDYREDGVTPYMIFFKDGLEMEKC
Test: co-IP; lysates of AGS cells stimulated with H. pylori 26695 or the ΔSlyD strain; incubated overnight at 4 °C with anti-TPT1 or IgG antibody and protein A/G beads, washed three times in IP lysis buffer; western blot for TPT1 and hnRNPK

binding: binds
Substance: Heterogeneous nuclear ribonucleoprotein K (from UniProt P61978 1-463)
